Values from PubChem BioAssay AID1224830 (NIAID, 2016)
The deposit covers about 18,000 reagents; this is a part drawn at random. About 2,900 of them (16%) were called active. 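Calls are made per well; low scores hint the gene aids the LPS response, high scores that it dampens it.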 Repeated entries: four replicate wells of each siRNA pool.

- Test: 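Host factors that control LPS-induced TNF expression in human macrophages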 (primary screen)
- System: human THP-1 monocytic leukaemia cells, TNF dual-luciferase reporter clone, PMA-differentiated to macrophage-like cells
- Reagents: siRNA pool against human genes, 50 nM
- Duration: LPS for 4 h, given about 3 days after siRNA transfection
- Challenge: bacterial LPS (TLR4 ligand), 10 ng/ml
- Measurement: 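Ratio of firefly to renilla light, scaled to the plate median and expressed as a robust z-score per replicate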
- Reading the numbers: TNF reporter robust z-score: higher = stronger TNF reporter response to LPS
- Call rule: 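a well is active when its z-score exceeds 2.8 or falls below -1.5; control wells carry no call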

no.	Target gene	TNF reporter robust z-score	Outcome
1	DYNLT5	-1.82	active
2	DYNLT5	-1.46	inactive
3	DYNLT5	-1.97	active
4	DYNLT5	-2.07	active
5	BTG4		inactive
6	BTG4	-1.7	active
7	BTG4	-1.8	active
8	BTG4	-1.84	active
9	BTG4	-1.53	active
10	LCN2	1.92	inactive
11	LCN2	1.26	inactive
12	LCN2	1.22	inactive
13	LCN2	1.53	inactive
14	PDK1	0.67	inactive
15	PDK1	-0.38	inactive
16	PDK1	-0.34	inactive
17	PDK1	-1.12	inactive
18	RNF150	-0.63	inactive
19	RNF150	-0.21	inactive
20	RNF150	0.07	inactive
21	RNF150	0.25	inactive
22	MIS18BP1	1.23	inactive
23	MIS18BP1	0.71	inactive
24	MIS18BP1	0.45	inactive
25	MIS18BP1	0.89	inactive
26	RFTN1	1.04	inactive
27	RFTN1	0.84	inactive
28	RFTN1	0.75	inactive
29	RFTN1	1.17	inactive
30	SMCR8	-0.97	inactive
31	SMCR8	-0.12	inactive
32	SMCR8	-1.21	inactive
33	SMCR8	-0.44	inactive
34	SLC10A4	-0.36	inactive
35	SLC10A4	0.22	inactive
36	SLC10A4	1.22	inactive
37	SLC10A4	0.84	inactive
38	TRAPPC14	0.02	inactive
39	TRAPPC14	0.37	inactive
40	TRAPPC14	0.12	inactive
41	TRAPPC14	0.28	inactive
42	MEIG1	-0.85	inactive
43	MEIG1	-0.27	inactive
44	MEIG1	0.51	inactive
45	MEIG1	-0.34	inactive
46	FAIM2	0.06	inactive
47	FAIM2	1.05	inactive
48	FAIM2	-0.8	inactive
49	FAIM2	0.07	inactive
50	APLP1	0.97	inactive
51	APLP1	0.96	inactive
52	APLP1	0.5	inactive
53	APLP1	0.65	inactive
54	SPSB4	-0.6	inactive
55	SPSB4	1.53	inactive
56	SPSB4	1.92	inactive
57	SPSB4	0.82	inactive
58	UGT2B11	1.25	inactive
59	UGT2B11	0.58	inactive
60	UGT2B11	-0.35	inactive
61	UGT2B11	0.87	inactive
62	MYOG	-0.44	inactive
63	MYOG	-0.54	inactive
64	MYOG	-0.11	inactive
65	MYOG	-0.7	inactive
66	MCRS1	-0.32	inactive
67	MCRS1	0.42	inactive
68	MCRS1	0.86	inactive
69	MCRS1	0.41	inactive
70	REM1	-1.34	inactive
71	REM1	-1.32	inactive
72	REM1	0.02	inactive
73	REM1	-0.42	inactive
74	CPXM2	1.13	inactive
75	CPXM2	0.47	inactive
76	CPXM2	0.3	inactive
77	CPXM2	0.18	inactive
78	GZMH	-1.76	active
79	GZMH	-0.9	inactive
80	GZMH	-0.14	inactive
81	GZMH	0.24	inactive
82	KDM5C	1.49	inactive
83	KDM5C	-0.48	inactive
84	KDM5C	0.86	inactive
85	KDM5C	-0.75	inactive
86	GGTLC1	-0.02	inactive
87	GGTLC1	1.31	inactive
88	GGTLC1	2	inactive
89	GGTLC1	0.09	inactive
90	WDR19	-0.63	inactive
91	WDR19	0.36	inactive
92	WDR19	0.41	inactive
93	WDR19	0.55	inactive
94	CLRN1	-1.6	active
95	CLRN1	-0.9	inactive
96	CLRN1	-0.33	inactive
97	CLRN1	-1.15	inactive
98	GK5	-0.45	inactive
99	GK5	-0.9	inactive
100	GK5	-1.42	inactive
101	GK5	-1.15	inactive
102	DGKQ	-1.41	inactive
103	DGKQ	-1.21	inactive
104	DGKQ	0.75	inactive
105	DGKQ	0.68	inactive
106	IFNW1	0.11	inactive
107	IFNW1	-0.03	inactive
108	IFNW1	-0.44	inactive
109	IFNW1	0.21	inactive
110	FAM153A	0.29	inactive
111	FAM153A	0.02	inactive
112	FAM153A	0.46	inactive
113	FAM153A	-0.29	inactive
